Experimental data as given in PubChem BioAssay AID2685 (National Center for Advancing Translational Sciences (NCATS), 2010).
The whole screen tested about 320,000 compounds, of which about 2,100 (0.66%) were called active. The inconclusive results got no clear call from the source; some entries with a clear call stand among them for comparison. Calls follow the shape of the dose curve; as a rule, active = well fitted inhibition curve with a large enough effect in the signal ratio, with a control signal flat (not every such curve was filed as active); inconclusive = small, poorly fitted or top-dose-only effect, or effect the other way, or a change in a side signal; inactive = flat fitted curve, though single readings scatter; the % refers to the signal ratio. Potencies beside an inconclusive call are fits to weak or partial responses and may not hold up.

test: qHTS Assay for Lipid Storage Modulators in Drosophila S3 Cells; settings: BODIPY lipid droplet fluorescence, 18-24 h, cells fed with added oleic acid; lipid storage change, negative = inhibition: at 46.1 µM (top of the series) unless noted
Outline: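 Drosophila S3 cells got compounds at several concentrations plus oleic acid (400 uM solution). Laser-scanning cytometry with 488 nm excitation read lipid droplets at 500-530 nm and cells at 575-640 nm. Percent activity was relative to 20 uM Triacsin C.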
% is scaled to controls: 0 for no effect and ±100 for the full control effect; potency is read from the fitted curve at half-maximal effect.

Row | SMILES | lipid storage change, negative = inhibition | Potency | outcome
1 | CCOC(=O)c1c(C)n(Cc2ccc3c(c2)OCO3)c2ccc(O)cc12 | inconclusive: 93% | – | –
2 | CCCCCCn1c(=O)c(C(=O)Nc2ncccc2O)c(O)c2ccccc21 | – | active: 7.31 µM | –
3 | N#C/C(=C\c1ccccc1)C(=O)NC(=O)Oc1ccccc1 | – | inconclusive: 0.103 µM [falling, full curve] | –
4 | O=C(Cn1c(=O)oc2cc(S(=O)(=O)N3CCCC3)ccc21)N1CCN(C2CCCCC2)CC1 | – | inconclusive: 6.51 µM [falling, full curve, poor fit] | –
5 | O=c1c2ccccc2nc(-c2cccs2)n1-c1ccccc1 | inconclusive: -4.24% | – | –
6 | CCOC(=O)c1cc(C)n(CCc2cnc[nH]2)c1C | inconclusive: 0.514% | – | –
7 | O=c1cc(CN2CCNCC2)nc2sccn12 | inconclusive: -20.1% | – | –
8 | FC(F)(F)c1ccccc1N1CC1c1ccncc1 (stereo unspecified) | inactive: 10.2% | – | –
9 | CC(C)(C)NC(=O)NC(=O)CN1CC=C(c2ccccc2)CC1 | inconclusive: 9.17% | – | –
10 | CCCCn1c(O)c(C(CC)=NCc2cc(OC)cc(OC)c2)c(=O)[nH]c1=O | – | inconclusive: 29.1 µM [activator, single point] | –
11 | O=C(Nc1ccc(Br)cc1)c1nn(C23CC4CC(CC(C4)C2)C3)cc1Br | inactive: 20.5% | – | –
12 | C(#CCN1CCCC1)CN1CCCC1 | inconclusive: -36.8% | – | –
13 | CCCSc1nc(O)c(CC)c(=O)n1C(C)CC (stereo unspecified) | inconclusive: 7.16% | – | –
14 | COc1ccc(C2=NCC(=O)N(CC(=O)NCc3ccco3)c3sc4c(c32)CCCC4)cc1OC | inconclusive: 13.9% | – | –
15 | CCOc1cc(CNCCc2cccc(F)c2)ccc1OC | inconclusive: 62.1% | – | –
16 | CN(C)C(=O)Oc1ccc2oc(=O)cc(-c3cc4ccccc4o3)c2c1 | – | inconclusive: 0.13 µM [falling, full curve, poor fit] | –
17 | CN(C)c1ccc(NC(=O)CN2C(=O)CN=C(c3ccccc3)c3ccccc32)cc1 | – | active: 10.3 µM | –
18 | COc1cc(/C=C/c2nc3ccccc3c(=O)n2-c2ccc(O)cc2)ccc1O | – | inconclusive: 29.1 µM [falling, single point] | –
19 | COC1CCCCC1NCCc1ccccc1 (stereo unspecified) | inactive: -2.57% | – | –
20 | CC(=O)N(C1=NCCCS1)c1ccc(F)cc1 | – | active: 16.4 µM | –
21 | Cc1cc(C)cc(OC(=O)N2CCOCC2)c1 | – | inconclusive: 29.1 µM [activator, single point] | –
22 | Cc1ccsc1-c1nc(CSCC(=O)N2CCC3(CC2)OCCO3)c(C)o1 | – | inconclusive: 29.1 µM [falling, single point] | –
23 | COc1ccc(C2SCC(=O)Nc3c2c(=O)[nH]n3C2CCCCCC2)cc1OC (stereo unspecified) | inconclusive: 54.2% | – | –
24 | COc1ccc(CN2CCN(C(=O)COc3ccc4ccccc4c3)CC2)c(OC)c1 | – | inconclusive: 20.6 µM [activator, partial curve, poor fit] | –
25 | O=c1[nH]c(=S)n(-c2ccccc2F)c(O)c1C=NCc1ccco1 | inconclusive: 24.5% | – | –
26 | O=[N+]([O-])c1cccc2c([N+](=O)[O-])cccc12 | inconclusive: 8.02% | – | –

Row | SMILES | lipid storage change, negative = inhibition | Potency | outcome
27 | COC(=O)C1=C(c2cccc(C#N)c2)C[C@@H]2CC[C@H]1N2C(=O)NCc1ccc(F)cc1 | inconclusive: -22.2% | – | –
28 | O=C(C1CCCO1)N1CCC2(CC1)OCCO2 (stereo unspecified) | inconclusive: -4.63% | – | –
29 | c1ccc(CNC2=NCCS2)cc1 | inconclusive: -163% | – | –
30 | O=C1NC(=O)C(=CN2CCc3ccccc32)C(=O)N1 | inconclusive: 32.9% | – | –
31 | CCc1ccc(OCC(=O)N2CCN(CC(=O)Nc3ccccc3Cl)CC2)cc1 | inconclusive: 1.87% | – | –
32 | C[C@H]1[C@@H](c2ccccc2)O[C@@H](c2ccccc2Br)N1C | inconclusive: -10.5% | – | –
33 | Cc1oc(-c2ccccc2)nc1CN1C(=O)C(C)N=C(c2ccccc2F)c2cc(Cl)ccc21 (stereo unspecified) | – | inconclusive: 1.3 µM [activator, full curve, poor fit] | –
34 | O=C1NC(=O)N(Cc2ccccc2)C(=O)/C1=C/c1cnc(-c2ccccc2)nc1 | inconclusive: 7.29% | – | –
35 | COC(=O)C1=C(c2ccc(OC(F)(F)F)cc2)C[C@@H]2CC[C@H]1N2C(=O)N1CCOCC1 | – | inconclusive: 29.1 µM [falling, single point] | –
36 | O=S(=O)(c1ccc(Cl)cc1)N1CC1c1ccccc1 (stereo unspecified) | – | inconclusive: 1.03 µM [cytotoxic, full curve, poor fit] | –
37 | O=C1CCN(C(=O)Cc2ccccc2[N+](=O)[O-])CC1 | inconclusive: 0.975% | – | –
38 | CCn1c(O)c(/C(C)=N/N2CCCCC2c2cccnc2)c(=O)[nH]c1=S (stereo unspecified) | – | inconclusive: 4.61 µM [rising, full curve, poor fit] | –
39 | CN1CCN(c2ccc(F)cc2N)CC1 | inconclusive: 9.35% | – | –
40 | CCNC(=O)NC(=O)C(C)OC(=O)c1c(C)nn(Cc2ccccc2Cl)c1Cl (stereo unspecified) | inconclusive: 37.9% | – | –
41 | COc1ccc(N=Cc2c(O)n(C)c(=O)[nH]c2=O)cc1 | inconclusive: 20.4% | – | –
42 | S=c1[nH]c2ccccc2[nH]1 | inconclusive: -5.36% | – | –
43 | CCN(CC)CCNCc1nc2ccccc2c(=O)n1-c1ccc(F)cc1 | – | inconclusive: 3.26 µM [falling, partial curve, poor fit] | –
44 | O=C(CNC1CCCCC1)N1CCC2(CC1)OCCO2 | – | inconclusive: 1.84 µM [falling, partial curve] | –
45 | Cc1ccccc1-n1c(O)c(C=Nc2ccc3c(c2)OCO3)c(=O)[nH]c1=O | inconclusive: -10.1% | – | –
46 | CC(Cc1ccccc1)NC(=O)C(c1ccc(N)cc1)c1ccc(N)cc1 (stereo unspecified) | inconclusive: 120% | – | –
47 | O=c1[nH]c(=O)n(C2CCCCCC2)c(O)c1C=NC1CCN(Cc2ccccc2)CC1 | inconclusive: 4% | – | –
48 | O=C(c1cc(-c2ccccc2)on1)N1CCC2(CC1)OCCO2 | inconclusive: -13.2% | – | –
49 | Fc1ccc(Cn2nnnc2C(c2ccc(Cl)cc2)N2CC=C(c3ccc(F)cc3)CC2)cc1 (stereo unspecified) | – | inconclusive: 29.1 µM [rising, single point] | –
50 | COC(=O)C1=C(c2ccc(-c3ccccc3)c(F)c2)C[C@@H]2CC[C@H]1N2C(=O)NC1CCCCC1 | – | inconclusive: 0.058 µM [falling, full curve, poor fit] | –
51 | Cc1ccccc1-n1c(C)nc2sccc2c1=O | inconclusive: 9.47% | – | –
52 | CCc1nnc(NS(=O)(=O)c2ccc(N=Cc3c(O)n(-c4ccc(Cl)cc4)c(=O)[nH]c3=O)cc2)s1 | inconclusive: -26.2% | – | –

Part of the list above, set out differently:
C[C@H]1[C@@H](c2ccccc2)O[C@@H](c2ccccc2Br)N1C
  lipid storage change, negative = inhibition: inconclusive: -10.5%
Cc1oc(-c2ccccc2)nc1CN1C(=O)C(C)N=C(c2ccccc2F)c2cc(Cl)ccc21 (stereo unspecified)
  Potency: inconclusive: 1.3 µM [activator, full curve, poor fit]

Exported as tab-separated lines: entries from further up
Row	SMILES	lipid storage change, negative = inhibition	Potency	outcome
50	COC(=O)C1=C(c2ccc(-c3ccccc3)c(F)c2)C[C@@H]2CC[C@H]1N2C(=O)NC1CCCCC1	–	inconclusive: 0.058 µM [falling, full curve, poor fit]	–
51	Cc1ccccc1-n1c(C)nc2sccc2c1=O	inconclusive: 9.47%	–	–
52	CCc1nnc(NS(=O)(=O)c2ccc(N=Cc3c(O)n(-c4ccc(Cl)cc4)c(=O)[nH]c3=O)cc2)s1	inconclusive: -26.2%	–	–

The list goes on:

Row | SMILES | lipid storage change, negative = inhibition | Potency | outcome
53 | CC(C)n1c(=O)c(C=Nc2ccc(Br)cc2)c(O)n(Cc2ccco2)c1=O | inconclusive: -52.2% | – | –
54 | COc1ccccc1CCNC1CCCC(C)C1 (stereo unspecified) | – | inconclusive: 0.058 µM [falling, full curve, poor fit] | –
55 | O=c1c2ccccc2[se]n1-c1ccccc1 | – | inconclusive: 20.6 µM [cytotoxic, partial curve] | –
56 | O=c1[nH]c(=S)n(C2CCCCC2)c(O)c1C=NCCN1CCOCC1 | – | inconclusive: 29.1 µM [cytotoxic, single point] | –
57 | CN1CCN(c2ccccc2N)CC1 | inconclusive: 3.23% | – | –
58 | C=CCN(c1ccccc1)S(=O)(=O)c1ccc2c(c1)oc(=O)n2C | – | inconclusive: 3.26 µM [falling, single point] | –
59 | C[n+]1c(-c2ccccc2)c2cc(N)ccc2c2ccc(N)cc21 | inconclusive: -24.3% | – | –
60 | O=C(Cn1ncc2c3ccccc3n(Cc3ccccc3F)c2c1=O)N1CCC2(CC1)OCCO2 | – | inconclusive: 1.16 µM [activator, single point] | –
61 | CCOc1ccc(C2SCC(=O)Nc3c2c(C)nn3C2CCOC(C)(C)C2)cc1 (stereo unspecified) | – | inconclusive: 32.6 µM [falling, single point] | –
62 | CN1C(=O)N(C)C(=O)C2(Cc3c(nc4ccccn4c3=O)N3CCc4ccccc4C32)C1=O (stereo unspecified) | – | inconclusive: 0.0052 µM [activator, full curve, poor fit] | –
63 | Clc1ccc(OCC#CCN2CCOCC2)cc1 | inconclusive: -28.5% [at 9.22 µM] | – | –
64 | Clc1ccc(NC2=NCCCS2)cc1Cl | inconclusive: 112% | – | –
65 | COC(=O)C1=C(c2ccc(F)cc2OCc2ccccc2)C[C@@H]2CC[C@H]1N2C(=O)N1CCCC1 | – | inconclusive: 29.1 µM [falling, single point] | –
66 | COC(=O)C1=C(c2ccc(OC(F)(F)F)cc2)C[C@@H]2CC[C@H]1N2C(=O)NCC1CC1 | – | inconclusive: 0.146 µM [activator, single point] | –
67 | COc1ccc(N=C(C)c2c(O)n(C)c(=O)n(C)c2=O)c(OC)c1 | – | inconclusive: 2.91 µM [falling, single point] | –
68 | CNC(=S)N1CCn2cccc2C1c1cccnc1 (stereo unspecified) | inconclusive: 5.29% | – | –
69 | Cc1cc(OC(C)C(=O)NCC(O)c2ccccc2)c2c3c(c(=O)oc2c1)CCC3 (stereo unspecified) | – | – | inactive
70 | CCOC(=O)c1cc(C)sc1/N=C/C1C(=O)NC(=S)NC1=O | inconclusive: 8.75% | – | –
71 | Cc1ccnc(-n2c(C)cc(C=C3C(=O)N(C)C(=S)N(C)C3=O)c2C)c1 | inconclusive: 2.78% | – | –
72 | COC(=O)C1=C(c2ccc(C(C)=O)cc2)C[C@@H]2CC[C@H]1N2C(=O)NCc1ccc2c(c1)OCO2 | – | inconclusive: 0.0058 µM [activator, full curve, poor fit] | –
73 | CCN(CC)P(=O)(c1n(CC)cc[n+]1CC)N(CC)CC | inconclusive: -26.7% | – | –
74 | CCCCCc1nc2c(c(=O)c3ccccc3n2C)c(=O)n1C1CCCCCC1 | – | inconclusive: 18.4 µM [cytotoxic, single point] | –
75 | CNP1(NC)=NC(C(F)(F)F)=NC(C(F)(F)F)=N1 | inactive: -21.3% | – | –
76 | C[N+]1([O-])[C@@H]2CC(OC(=O)[C@H](CO)c3ccccc3)C[C@H]1[C@@H]1O[C@@H]12 (stereo partly specified) | inconclusive: -35.5% | – | –
